We go through ten molecules from the supplement of paper PMC4604168 (melanoma cell lines).

Test systems include MeWo; RPMI7951; RVH-421; SkMel28; SkMel2; SkMel30; UACC62; WM115; WM1716; WM1745; WM3526; WM3619; WM451Lu; SkMel5; UACC257.
Common to all, as to assay: cleaved PARP positive nuclei fraction relative to DMSO control; melanoma cells; higher = more apoptosis
What all share (details): library dose: low library concentration; 72 h

This is one part of the list. Repeats are few or missing, and single values can be far off.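 The apoptosis fraction was the count of cleaved-PARP antibody-stained nuclei relative to all DNA-stained nuclei, imaged in 1,536-well plates. Screening doses were set so most cells survived, and baseline and induced cleaved-PARP levels vary greatly across cell lines.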

With `CCCCCCCCCCCCCCCCCCOP(=O)([O-])OC1CC[N+](C)(C)CC1` [Perifosine] + Cn1c(=O)n(-c2ccc(C(C)(C)C#N)cc2)c2c3cc(-c4cnc5ccccc5c4)ccc3ncc21 [NVP-BEZ235] (first compound 0.4 µM, partner dose 0.004 µM), the “cleaved PARP positive nuclei fraction” value in the experiment with MeWo came out at 57.7%; in the experiment with RPMI7951, 98.5%; with RVH-421, 105%; with SkMel28, 45.1%; in the experiment on SkMel2, 89.6%; with SkMel30 it was 79%. For the same molecule, the “cleaved PARP positive nuclei fraction” value with UACC62 was found to be 27.1%; in the experiment with WM115, 163%; in the experiment on WM1716 it was 35.1%; in the experiment with WM1745, 87.7%; with WM3526, 70.8%; in the experiment on WM3619 it was 108%. In addition, the “cleaved PARP positive nuclei fraction” value in the experiment on WM451Lu turned out to be 47.4%.
Turning to `COc1cc([C@@H]2c3cc4c(cc3[C@@H](O[C@@H]3O[C@@H]5CO[C@@H](C)O[C@H]5[C@H](O)[C@H]3O)[C@H]3COC(=O)[C@H]23)OCO4)cc(OC)c1O` [etoposide] + Cn1nnc2c(C(N)=O)ncn2c1=O [temozolomide] (first compound 0.02 µM, partner dose 2 µM), the “cleaved PARP positive nuclei fraction” value amounted to 20.5% with MeWo; 185% with RPMI7951; 94% in the experiment with SkMel28; 178% with SkMel2; 168% in the experiment on SkMel30; 91.4% in the experiment on UACC62. Moreover, the “cleaved PARP positive nuclei fraction” value with WM115 stood at 134%; in the experiment on WM1716, 91.5%; with WM1745 it was 110%; with WM3526 it was 45.3%; with WM3619, 106%; with WM451Lu, 48.4%.
In the case of `O=c1[nH]nc(Sc2ncc([N+](=O)[O-])s2)n1-c1ccc2c(c1)OCCO2` + Cc1cc([N+](=O)[O-])ccc1NS(=O)(=O)c1cc(Cl)ccc1Cl [FH535] (first compound 0.2 µM, partner dose 1 µM), the “cleaved PARP positive nuclei fraction” value in the experiment on MeWo came out at 170%; with RPMI7951, 67.2%; in the experiment with RVH-421 it was 214%; in the experiment with SkMel28 it was 100%; in the experiment with SkMel30 it was 84.7%; in the experiment on SkMel5 it was 157%. Further, the “cleaved PARP positive nuclei fraction” value with UACC257 was determined as 61%; in the experiment with UACC62 it was 159%; in the experiment on WM115, 124%; in the experiment on WM1716, 310%; in the experiment on WM1745, 93.3%; in the experiment on WM3526, 119%. In addition, the results for the “cleaved PARP positive nuclei fraction” value with WM3619 and with WM451Lu were 73.6% and 152%, respectively.
Consider `COc1cc([C@@H]2c3cc4c(cc3[C@@H](O[C@@H]3O[C@@H]5CO[C@@H](C)O[C@H]5[C@H](O)[C@H]3O)[C@H]3COC(=O)[C@H]23)OCO4)cc(OC)c1O` [etoposide] + O=C(/C=C/c1cccnc1)NCCCCC1CCN(C(=O)c2ccccc2)CC1 [FK866] (first compound 0.02 µM, partner dose 0.01 µM), for which the “cleaved PARP positive nuclei fraction” value in the experiment with MeWo came out at 113%; in the experiment with RPMI7951, 144%; with RVH-421, 56.1%; in the experiment with SkMel28, 75.3%; in the experiment with SkMel2, 1100%; in the experiment on SkMel30, 16%. Also, the “cleaved PARP positive nuclei fraction” value in the experiment on UACC62 was determined as 73%; in the experiment with WM115, 144%; in the experiment on WM1716, 37.5%; in the experiment with WM1745 it was 104%; in the experiment with WM3526, 74.3%; in the experiment on WM3619 it was 129%. The “cleaved PARP positive nuclei fraction” value in the experiment on WM451Lu is 77.3%.
On to `Cc1cn(-c2cc(NC(=O)c3ccc(C)c(Nc4nccc(-c5cccnc5)n4)c3)cc(C(F)(F)F)c2)cn1` [nilotinib] + CCCS(=O)(=O)Nc1ccc(F)c(C(=O)c2c[nH]c3ncc(Cl)cc23)c1F [PLX4720] (first compound 0.2 µM, partner dose 0.08 µM), for which the “cleaved PARP positive nuclei fraction” value was determined as 110% in the experiment on MeWo; 224% in the experiment on RPMI7951; 123% in the experiment on RVH-421; 25.9% in the experiment with SkMel28; 133% in the experiment with SkMel30; 220% with UACC62. For the same molecule, the “cleaved PARP positive nuclei fraction” value in the experiment with WM115 amounted to 72.3%; with WM1716, 67.4%; in the experiment on WM1745 it was 117%; in the experiment on WM3526, 161%; in the experiment on WM3619, 111%; with WM451Lu, 93.6%.
As to `N#CC[C@H](C1CCCC1)n1cc(-c2ncnc3[nH]ccc23)cn1` [ruxolitinib] + c1cc(-c2cnn3cc(-c4ccc(OCCN5CCCCC5)cc4)cnc23)ccn1 [Dorsomorphin] (first compound 1 µM, partner dose 0.4 µM), the “cleaved PARP positive nuclei fraction” value with MeWo was 78.6%; in the experiment on RPMI7951, 252%; in the experiment with RVH-421, 112%; in the experiment with SkMel28 it was 155%; with SkMel30 it was 81.5%; in the experiment with SkMel5, 85.1%. The “cleaved PARP positive nuclei fraction” value in the experiment on UACC257 is 73.9%; with UACC62, 142%; with WM115 it was 39.8%; in the experiment with WM1716 it was 231%; in the experiment with WM1745 it was 101%; in the experiment on WM3526, 48.3%. In addition, the results for the “cleaved PARP positive nuclei fraction” value with WM3619 and in the experiment with WM451Lu were 82.6% and 105%, respectively.
In the case of `N#CC[C@H](C1CCCC1)n1cc(-c2ncnc3[nH]ccc23)cn1` [ruxolitinib] + NC(=O)c1ccc(N(C(N)=O)c2c(F)cccc2F)nc1-c1ccc(F)cc1F [VX702] (first compound 1 µM, partner dose 0.4 µM), the “cleaved PARP positive nuclei fraction” value in the experiment on MeWo came out at 166%; with RPMI7951, 98.6%; with RVH-421, 37.8%; with SkMel28, 40.8%; with SkMel30, 36.5%; in the experiment with UACC62, 36.3%. Besides, the “cleaved PARP positive nuclei fraction” value was 75.8% with WM115; 119% in the experiment on WM1716; 90.2% with WM1745; 370% in the experiment with WM3526; 86.4% in the experiment on WM3619; 75.5% in the experiment with WM451Lu.
Consider `N#CC[C@H](C1CCCC1)n1cc(-c2ncnc3[nH]ccc23)cn1` [ruxolitinib] + C=CCn1c(=O)c2cnc(Nc3ccc(N4CCN(C)CC4)cc3)nc2n1-c1cccc(C(C)(C)O)n1 [MK1775] (first compound 1 µM, partner dose 0.02 µM), for which the “cleaved PARP positive nuclei fraction” value was 229% in the experiment on MeWo; 103% with RPMI7951; 119% in the experiment with RVH-421; 120% with SkMel28; 81.5% in the experiment with SkMel30; 40.1% in the experiment on SkMel5. For the same molecule, the “cleaved PARP positive nuclei fraction” value with UACC257 stood at 111%; with UACC62, 276%; in the experiment on WM115, 69.8%; in the experiment with WM1716, 129%; in the experiment on WM1745 it was 115%; in the experiment on WM3526 it was 117%. Further, the “cleaved PARP positive nuclei fraction” value in the experiment with WM3619 amounted to 80.8%; in the experiment with WM451Lu, 195%.
For `O=c1[nH]nc(Sc2ncc([N+](=O)[O-])s2)n1-c1ccc2c(c1)OCCO2` + OCc1c[nH]c2ccccc12 [Indole-3-carbinol] (first compound 0.2 µM, partner dose 0.8 µM), the “cleaved PARP positive nuclei fraction” value in the experiment with MeWo was found to be 119%; in the experiment with RPMI7951, 97.2%; in the experiment with RVH-421, 77.9%; in the experiment on SkMel28, 37.8%; in the experiment with SkMel30, 254%; with UACC62, 76.6%. The “cleaved PARP positive nuclei fraction” value in the experiment with WM115 was 131%; in the experiment on WM1716 it was 131%; in the experiment on WM1745, 101%; in the experiment with WM3526, 210%; with WM3619 it was 80.1%; in the experiment with WM451Lu it was 102%.
On to `COc1cc([C@@H]2c3cc4c(cc3[C@@H](O[C@@H]3O[C@@H]5CO[C@@H](C)O[C@H]5[C@H](O)[C@H]3O)[C@H]3COC(=O)[C@H]23)OCO4)cc(OC)c1O` [etoposide] + O=c1cc(-c2cccc3c2Sc2ccccc2S3)oc(N2CCOCC2)c1 [KU55933] (first compound 0.02 µM, partner dose 1 µM), for which the “cleaved PARP positive nuclei fraction” value turned out to be 138% in the experiment with MeWo; 92% with RPMI7951; 76.1% in the experiment with RVH-421; 99% with SkMel28; 628% with SkMel30; 76.8% in the experiment on SkMel5. Also, the “cleaved PARP positive nuclei fraction” value in the experiment on UACC257 worked out at 113%; with UACC62, 86.4%; in the experiment on WM115, 156%; with WM1716, 118%; with WM1745, 101%; in the experiment with WM3526, 59.9%. The “cleaved PARP positive nuclei fraction” value amounted to 109% in the experiment on WM3619 and 34.6% in the experiment with WM451Lu.
